Laboratory results from patent publication US20240109936A1 (University of Florida Research Foundation, Incorporated, priority 2020, published 2024).
One purity is given for all peptides; the source may state it once. [ ]: non-standard residue; d: D form. The star is where a group is joined. dPhe(4-NO2) = N[C@H](Cc1ccc([N+](=O)[O-])cc1)C(=O)O; dPhe(3-CF3) = N[C@H](Cc1cccc(C(F)(F)F)c1)C(=O)O; dPhe(4-CF3) = N[C@H](Cc1ccc(C(F)(F)F)cc1)C(=O)O; dPhe(2-CF3) = N[C@H](Cc1ccccc1C(F)(F)F)C(=O)O; dPhe(4-NH2) = Nc1ccc(C[C@@H](N)C(=O)O)cc1; dPhe(3-Cl) = N[C@H](Cc1cccc(Cl)c1)C(=O)O; dPhe(4-Br) = N[C@H](Cc1ccc(Br)cc1)C(=O)O; dPhe(4-Cl) = N[C@H](Cc1ccc(Cl)cc1)C(=O)O; Phe(3-F) = N[C@@H](Cc1cccc(F)c1)C(=O)O; Phe(4-F) = N[C@@H](Cc1ccc(F)cc1)C(=O)O; dPhe(2-Br) = N[C@H](Cc1ccccc1Br)C(=O)O; dPhe(2-Cl) = N[C@H](Cc1ccccc1Cl)C(=O)O; dPhe(3-F) = N[C@H](Cc1cccc(F)c1)C(=O)O; dPhe(4-F) = N[C@H](Cc1ccc(F)cc1)C(=O)O; dPhe(4-I) = N[C@H](Cc1ccc(I)cc1)C(=O)O; dPhe(2-F) = N[C@H](Cc1ccccc1F)C(=O)O; Cha = N[C@@H](CC1CCCCC1)C(=O)O; dCha = N[C@H](CC1CCCCC1)C(=O)O; tBu = CC(C)(C)*

Experiment: general procedure: Fmoc solid-phase peptide synthesis; 2-chlorotrityl chloride resin; PyBOP/HOBt/DIEA
Conditions: whole synthesis, UPLC, Waters Acquity BEH C18, two solvent systems (MeCN/0.1% TFA and MeOH/0.1% TFA)

Final HPLC purity, >99%:
cyclo[Phe-D-Pro-Phe-D-Phe(3,4,5-tri-F)]
cyclo(F[dP]F[dPhe(2-CF3)])
cyclo(F[dP]F[dPhe(2-Cl)])
cyclo[3′-Pal-D-Pro-Phe-D-Phe(4-F)]
cyclo[Phe-D-Pro-Phe-D-Phe(2-NH2CO)]
cyclo(F[dP]F[dPhe(4-Br)])
cyclo[3′-Pal-D-Pro-Phe-D-Phe(2-Cl)]
cyclo[Phe-D-Pro-Phe(4-MeO)-D-Phe]
cyclo(F[dP][Phe(4-F)][dF])
cyclo[Phe-D-Pro-Phe-D-Phe(2,4-di-Cl)]
cyclo(F[dP]F[dPhe(4-F)])
cyclo(F[dP]F[dPhe(4-NO2)])
cyclo[Phe-D-Pro-Phe-D-Phe(3,4-di-F)]
cyclo[Phe-D-Pro-Phe-D-Trp(N-Me)]
cyclo[3′-Pal-D-Pro-Phe-D-Phe(2-F)]
cyclo(F[dP]F[dPhe(2-F)])
cyclo[Phe-D-Pro-Phe-D-Phe(4-NH2CH2)]
cyclo[Phe-D-Pro-Phe-D-Phe(2,4,5-tri-F)]
cyclo(F[dP][Phe(3-F)][dF])
cyclo[Phe(4-NH2CH2)-D-Pro-Phe-D-Trp]
cyclo[Phe-D-Pro-Phe(3-NH2CO)-D-Trp]
cyclo(F[dP]F[dPhe(4-CF3)])
cyclo(F[dP][Cha][dW])
cyclo[Phe-D-Pro-Phe-D-Phe(4-CH3)]
cyclo(F[dP]F[dL])
cyclo[3′-Pal-D-Pro-Phe-D-Phe(3-Cl)]
cyclo[Phe-D-Pro-Phe-D-Phe(2-NH2CH2)]
cyclo(F[dP]Y[dF])
cyclo[Phe-D-Pro-Phe(2-NH2CO)-D-Trp]
cyclo(F[dP]F[dPhe(4-NH2)])
cyclo[3′-Pal-D-Pro-Phe-D-Phe(4-Cl)]
cyclo(F[dP]F[dPhe(3-CF3)])
cyclo(F[dP]F[dPhe(4-I)])
cyclo[Phe-D-Pro-Phe(4-MeO)-D-Trp]
cyclo[Phe-D-Pro-Phe-D-Phe(4-MeO)]
cyclo[Phe-D-Pro-Phe-D-Phe(2-CH3)]
cyclo(F[dP]F[dPhe(2-Br)])
cyclo[Phe-D-Pro-Phe-D-Phe(3-CH3)]
cyclo[Phe-D-Pro-Phe-D-Phe(3,4-di-Cl)]
cyclo[Phe-D-Pro-Phe(4-NH2CO)-D-Trp]
cyclo(F[dP]F[dPhe(3-F)])
cyclo(F[dP]Y(tBu)[dW])
cyclo(F[dP][Cha][dF])
cyclo[Phe-D-Pro-Phe-D-Phe(penta-F)]
cyclo[Phe-D-Pro-Phe(4-NH2CH2)-D-Trp]
cyclo(F[dP]F[dCha])
cyclo[3′-Pal-D-Pro-Phe-D-Cha]
cyclo(F[dP]Y[dW])
cyclo(F[dP][Phe(4-F)][dW])
cyclo[3′-Pal-D-Pro-Phe-D-Phe(3-F)]
cyclo(F[dP]F[dQ])
cyclo(F[dP]F[dPhe(3-Cl)])
cyclo[Phe-D-Pro-Phe(4-NH2CH2)-D-Phe]
cyclo[Phe-D-Pro-Phe-D-Phe(4-NH2CO)]
cyclo[Phe-D-Pro-Phe-D-Phe(3-NH2CO)]
cyclo[Phe-D-Pro-Phe-D-Trp(N-CHO)]
cyclo(F[dP][Phe(3-F)][dW])
cyclo(F[dP]F[dPhe(4-Cl)])
cyclo[Phe-D-Pro-Phe-D-Phe(3,5-di-F)]
